We go through three substances from paper PMC3460870.

In the assay the target is T1, myc-Vangl1 (UniProt Q80Z96).
T1 sequence: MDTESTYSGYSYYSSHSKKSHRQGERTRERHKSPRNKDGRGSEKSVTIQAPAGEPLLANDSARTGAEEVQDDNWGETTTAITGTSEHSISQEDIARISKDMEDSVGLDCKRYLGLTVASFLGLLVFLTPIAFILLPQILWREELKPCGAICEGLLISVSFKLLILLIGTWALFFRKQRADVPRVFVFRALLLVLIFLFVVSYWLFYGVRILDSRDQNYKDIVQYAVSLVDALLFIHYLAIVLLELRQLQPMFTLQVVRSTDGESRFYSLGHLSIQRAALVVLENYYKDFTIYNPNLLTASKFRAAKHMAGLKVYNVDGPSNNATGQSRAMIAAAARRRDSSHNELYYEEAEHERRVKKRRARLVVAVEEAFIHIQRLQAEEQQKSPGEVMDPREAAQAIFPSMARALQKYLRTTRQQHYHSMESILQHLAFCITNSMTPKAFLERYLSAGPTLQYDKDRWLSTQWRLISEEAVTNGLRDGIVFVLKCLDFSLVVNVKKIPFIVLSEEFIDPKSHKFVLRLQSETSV
Put plainly: co-IP; myc-Vangl1 co-expressed with GFP-Vangl2, its truncations or GFP in T47D cells; immunoprecipitation with anti-myc antibody, western blot. (In general: A western blot detects proteins with antibodies after separation by electrophoresis.)

No constants are given. Whether binding was seen depends on the method and setting. Binding seen in cells or lysates may run through a third protein. A result given as binding can be weak or reduced; the word gives no strength. Where a sequence is shown, tags or fusion partners need not be part of it.

As for “GFP-Vangl2.ΔC (mouse) (domain or fragment)”, the binding entry is recorded as “binds”.

Regarding “GFP-Vangl2.ΔN (mouse) (domain or fragment)”, the binding entry is listed as “binds”.

Consider “GFP-Vangl2.ΔNΔC (mouse) (domain or fragment)”, for which the binding entry is reported as “binds”.
